Measurements: PubChem BioAssay AID540276 (National Center for Advancing Translational Sciences (NCATS), 2011)
Several values for one entry are separate records, joined by “and”; a condition that tells them apart may be missing. Equal entries are not always repeated. Among all 300,000 compounds or so, about 5,400 (1.8%) were called active. This list was built around the results that the source calls inconclusive (neither active nor inactive); the mix of calls is not that of the screen. Calls come from the whole dose curve; tested in HEK293 cells. Where the call is inconclusive, the potency comes from a doubtful curve fit.

assay: qHTS for inhibitors of binding or entry into cells for Marburg Virus; settings: Marburg virus pseudotyped entry inhibition, cell reporter; series mostly up to 37.8 µM
Potency is the fitted concentration of half-maximal effect.

SMILES | Potency
CCOc1ccc(C(=O)NC(C(=O)NCc2cccnc2)C(C)C)cc1 (stereo unspecified) | inconclusive: 3.98 µM [activator, single point]
CCOC(=O)N1CCN(c2cc(C)c(C(C)=O)cc2F)CC1 | inactive
COc1ccc(C(=O)OCC(=O)N(C)C2CCS(=O)(=O)C2)cc1S(=O)(=O)N1CCCc2ccccc21 (stereo unspecified) | inactive
COc1cc(C(=O)NCCOc2ccc(F)cc2)c(Br)c(OC)c1OC | inconclusive: 11.2 µM [inhibitor, partial curve, poor fit]
C[C@H]1CCC2[C@](C)(CO)[C@@H](O)CC[C@]2(C)[C@@]12CCC(CO)(CCO)O2 (stereo partly specified) | inactive
COc1ccc(/C=N/NC(=O)c2ccncc2)cc1OC | inactive
CC(=O)Nc1ccc(S(=O)(=O)N2CCN(c3cc(C)ccc3C)CC2)cc1 | inactive
Fc1ccc(Cn2nnc(-c3ccc(Cl)cc3)n2)cc1 | inactive
CC1Cc2ccccc2N1S(=O)(=O)c1cccc(C(=O)NCCCO)c1 (stereo unspecified) | inactive
CN(C)CCNc1oc(/C=C/c2ccccc2)nc1C#N | inconclusive: 2.82 µM [activator, single point]
COc1ccccc1NC(=O)c1cc(C(=O)Nc2ccccc2OC)n(C)n1 | inconclusive: 3.55 µM [inhibitor, full curve]
Cc1cc(=O)[nH]c(N2CCCC2)n1 | inactive
CC1CCCCN1CC(=O)Nc1ccc(N2CCCCCC2)cc1 (stereo unspecified) | inconclusive: 15.8 µM [inhibitor, single point]
O=C(NCCCN1CCOCC1)c1ccc(-n2nc(C(F)(F)F)cc2-c2cccs2)cc1 | inconclusive: 22.4 µM [inhibitor, single point]
COC(=O)C1=C(C)NC(C)=C(C(=O)OC)C1c1ccc(-c2cccc(Cl)c2Cl)o1 | inactive
O=C(NCCCO)C(=O)NCC1OCCCN1S(=O)(=O)c1cccs1 (stereo unspecified) | inactive
O=C1Nc2ccccc2N(O)N1c1ccc(S(=O)(=O)N2CCOCC2)cc1 | inconclusive: 0.398 µM [activator, partial curve, poor fit]
CCOC(=O)c1ccc(N2C(=O)c3[nH]nc(-c4ccccc4)c3C2c2cccs2)cc1 (stereo unspecified) | inconclusive: 35.5 µM [inhibitor, partial curve, poor fit]
CCN(CC)CCOc1ccc(C=NNc2nc3c([nH]2)c(=O)n(C)c(=O)n3C)cc1 | inconclusive: 17.8 µM [inhibitor, single point]
CC1CC(C)(C)CC2(C1)NC(=S)N(c1ccccc1)N2 (stereo unspecified) | inactive
Fc1ccc(CNC(=S)Nc2ccc(Cl)cc2Cl)cc1 | inactive
Cc1nc2ccccn2c1C(=O)N/N=C/c1ccc(F)cc1 | inconclusive: 20 µM [activator, single point]
Cn1cnnc1SCNC(=O)C(F)(F)F | inactive
O=C(OC(C(=O)NCc1ccco1)C(OC(=O)c1ccccc1)C(=O)NCc1ccco1)c1ccccc1 (stereo unspecified) | inconclusive: 3.55 µM [inhibitor, single point]

For convenience, four of the compounds above:
SMILES | Potency
CC(=O)Nc1ccc(S(=O)(=O)N2CCN(c3cc(C)ccc3C)CC2)cc1 | inactive
Fc1ccc(Cn2nnc(-c3ccc(Cl)cc3)n2)cc1 | inactive
CC1Cc2ccccc2N1S(=O)(=O)c1cccc(C(=O)NCCCO)c1 (stereo unspecified) | inactive
CN(C)CCNc1oc(/C=C/c2ccccc2)nc1C#N | inconclusive: 2.82 µM [activator, single point]

The listing continues:

SMILES | Potency
CC(=O)c1ccc(C(=O)Nc2ccc(N3CCOCC3)cc2)cc1 | inactive
Cn1nc(C(F)(F)F)c(C#N)c1N1CCN(c2ccccn2)CC1 | inactive
CC(=O)Nc1ccc2nc(NC(=O)C(Cl)(Cl)Cl)sc2c1 | inactive
COc1cc(/C=C/C(=O)OCC(=O)NCc2ccco2)ccc1O | inconclusive: 3.16 µM [inhibitor, single point]
N#Cc1c2c(c(Nc3ccc(F)cc3)n3c1nc1ccccc13)CCCC2 | inactive
Cc1cc2c(cc1C)CSC(c1c(O)ccc3ccccc13)SC2 | inconclusive: 29.1 µM [inhibitor, single point]
CCN(CC(=O)Nc1c(F)cccc1F)C(=O)c1cc2ccccc2oc1=O | inconclusive: 12.6 µM [activator, partial curve]
Cn1c(SCC(=O)Nc2ccc(NC(=O)c3cccs3)cc2)nnc1-c1ccncc1 | inactive
CCN(CC)CCNC(C(=O)Nc1cc(C(F)(F)F)ccc1Cl)c1ccccc1 (stereo unspecified) | inconclusive: 25.1 µM [inhibitor, single point]
Oc1ccc(C2CNCCc3c2cc(O)c(O)c3Cl)cc1 (stereo unspecified) | inconclusive: 1.83 µM [activator, partial curve] and inconclusive: 3.16 µM [inhibitor, partial curve, poor fit]
COc1cccc(NC(=O)c2ccccc2C(F)(F)F)c1 | inconclusive: 22.4 µM [activator, single point]
Cc1c(/C(O)=C2\C(=O)C(=O)N(CCN(C)C)C2c2cccnc2)cnn1-c1ccccc1 (stereo unspecified) | inconclusive: 35.5 µM [inhibitor, single point]
COC(=O)c1ccccc1S(=O)(=O)N1CCC(c2nc3ccccc3o2)CC1 | inconclusive: 0.112 µM [inhibitor, full curve, poor fit]
Cc1ccc(S(=O)(=O)N(CC(=O)Nc2ccccc2-c2ccccc2)c2ccc(C)cc2C)cc1 | inconclusive: 10 µM [inhibitor, partial curve, poor fit]
CC1CCN(S(=O)(=O)c2cn(CC(=O)Nc3cccc(C#N)c3)cn2)CC1 | inconclusive: 25.1 µM [inhibitor, partial curve, poor fit]
COc1ccccc1NS(=O)(=O)c1cc(NC(=O)c2ccccc2[N+](=O)[O-])ccc1N1CCOCC1 | inconclusive: 6.31 µM [inhibitor, partial curve, poor fit]
O=C(Nc1ncccc1O)c1cccc(S(=O)(=O)NCc2ccccc2)c1 | inconclusive: 5.62 µM [inhibitor, single point]
O=C(COc1ccccc1)Nc1nc(-c2ccncc2)cs1 | inconclusive: 35.5 µM [inhibitor, single point]
CCc1ccc(-c2nc(CN3CCCC(C(=O)NCCc4ccc(OC)c(OC)c4)C3)c(C)o2)cc1 (stereo unspecified) | inactive and inconclusive: 25.9 µM [inhibitor, single point]
c1ccc(CN=C2NN=C(c3ccccc3)CS2)cc1 | inconclusive: 25.1 µM [inhibitor, single point]
COC(=O)c1ccccc1NC(=O)Oc1ccc(F)cc1 | inactive
COc1ccccc1C(O)(C(=O)NNc1cccc(C)c1)c1ccccc1OC | inactive
COc1ccccc1NC(=O)CN(c1ccccc1F)S(C)(=O)=O | inconclusive: 6.31 µM [inhibitor, single point]
CC(C)Nc1nc(NC(C)C)nc(SCCOC(=O)Nc2ccc(Cl)cc2Cl)n1 | inactive

SMILES | Potency
CCOC(=S)SCc1cn2cccc(C)c2n1 | inactive
COc1ccc(-c2cc(NCc3ccc(C)cc3)n3cnnc3n2)cc1 | inconclusive: 35.5 µM [inhibitor, single point]
COc1ccc(CCNC(=O)c2cc3c(=O)n(C)c4cc(Cl)ccc4c3s2)cc1OC | inactive
N#Cc1nc(Cc2cccc3ccccc23)oc1NCC1CCCO1 (stereo unspecified) | inactive
COC(=O)C(=O)C/C(=N/Nc1ncnc2ccccc12)c1ccc(Cl)cc1 | inconclusive: 25.1 µM [inhibitor, single point]
COc1cccc(N2CCN(CC(=O)C34CC5CC(CC(C5)C3)C4)CC2)c1 | inactive
Cc1ccc(C(=O)OC2CCS(=O)(=O)c3sccc32)cc1 (stereo unspecified) | inconclusive: 12.6 µM [activator, partial curve, poor fit]
CCOC(=O)c1cc(-c2ccc(Cl)cc2)nc2c1c(=O)[nH]c(=O)n2CCOC | inconclusive: 35.5 µM [inhibitor, single point]
Oc1c(C(Nc2cccc(C(F)(F)F)c2)c2cccnc2)ccc2cccnc12 (stereo unspecified) | inconclusive: 29.1 µM [inhibitor, single point]
COc1ccc(-c2cc(-c3nnc(COC(=O)CC4CC5CCC4C5)o3)c3ccccc3n2)cc1OC (stereo unspecified) | inconclusive: 7.08 µM [inhibitor, partial curve, poor fit]
O=C1CNC(=S)N1C1CCCCCC1 | inactive
C/C(CC(=O)Nc1cccc(C(F)(F)F)c1)=N\NC(=O)C1CCCCC1 | inactive
O=C(/C=C/c1ccccc1)NC(=S)Nc1ccc(CN2CCOCC2)cc1 | inconclusive: 31.6 µM [inhibitor, single point]
Cc1ccc(C(=O)O/N=C2\CC3CCC2(C)C3(C)C)cc1 (stereo unspecified) | inconclusive: 4.61 µM [activator, single point]
O=C(OCCN1CCCC1=O)c1cncc(Br)c1 | inconclusive: 1.83 µM [activator, partial curve, poor fit]
CC(C)(C)C(=O)NCCc1nc2ccccc2n1CC(=O)c1ccc(Cl)cc1 | inconclusive: 23.1 µM [inhibitor, single point]
CC(=O)Nc1ccc2c(c1)OCCO2 | inactive
CCCCN1C(=O)/C(=C/C=C2\Oc3ccccc3N2CC)SC1=S | inconclusive: 35.5 µM [inhibitor, single point]
CCOCCCNC(=O)c1cc(Sc2ccc(F)cc2)nc2ccccc12 | inconclusive: 0.631 µM [activator, single point]
N/C(=N\c1nc2c(c(=O)[nH]1)CCC2)Nc1cccc(Cl)c1 | active: 6.31 µM
Oc1c(C(c2ccccc2)N2CCOCC2)ccc2ccccc12 (stereo unspecified) | inconclusive: 35.5 µM [inhibitor, single point]
CC(=O)N1N=C(c2ccccc2O)OC1(C)CC(=O)Nc1ccccc1 (stereo unspecified) | inconclusive: 6.31 µM [inhibitor, single point]
CNC(=S)N(CCc1ccccc1)Cc1cc2cc(OC)c(OC)cc2[nH]c1=O | inconclusive: 4.47 µM [activator, partial curve, poor fit]

Reformatted: two of the compounds above
Cc1cc(=O)[nH]c(N2CCCC2)n1
  Potency: inactive
CC1CCCCN1CC(=O)Nc1ccc(N2CCCCCC2)cc1 (stereo unspecified)
  Potency: inconclusive: 15.8 µM [inhibitor, single point]
